Assay results: publication PMC10303434
These are yes or no findings as the source states them, for the method shown. In cells and extracts the contact can be indirect. These calls come from enrichment with a bait or labelling near it, and not all partners need be listed.

Protein sequences, listed by entry. Tags and fused reporters are not part of them.
UniProt Q8NFJ5: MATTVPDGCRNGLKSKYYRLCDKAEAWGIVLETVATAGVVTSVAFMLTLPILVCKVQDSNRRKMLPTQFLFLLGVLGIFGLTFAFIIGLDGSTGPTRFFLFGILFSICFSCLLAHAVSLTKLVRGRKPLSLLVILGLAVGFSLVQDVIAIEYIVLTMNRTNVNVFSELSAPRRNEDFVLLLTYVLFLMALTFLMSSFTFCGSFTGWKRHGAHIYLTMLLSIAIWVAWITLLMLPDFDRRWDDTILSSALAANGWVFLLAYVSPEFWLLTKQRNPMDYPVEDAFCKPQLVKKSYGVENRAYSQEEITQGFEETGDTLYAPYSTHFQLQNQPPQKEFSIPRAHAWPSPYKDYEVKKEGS

Biological target: GPRC5A-FLAG (human (cDNA from TREX-BCBL-1 cells)) (UniProt Q8NFJ5)
Experiment: affinity purification with mass spectrometry; FLAG M2 antibody on Protein A or G Dynabeads, lysates of latent and lytic (reactivated) GPRC5A-FLAG TREx-BCBL1-Rta cells against parental cells, overnight at 4 °C; buffer 150 mM NaCl, 2 mM EDTA, 0.5% Triton-X 100, 0.5 mM DTT, 10 mM Tris pH 7.4; TMT LC-MS/MS, two replicates

B1: FLOT1 (protein, UniProt O75955 1-427)
chain: MFFTCGPNEAMVVSGFCRSPPVMVAGGRVFVLPCIQQIQRISLNTLTLNVKSEKVYTRHGVPISVTGIAQVKIQGQNKEMLAAACQMFLGKTEAEIAHIALETLEGHQRAIMAHMTVEEIYKDRQKFSEQVFKVASSDLVNMGISVVSYTLKDIHDDQDYLHSLGKARTAQVQKDARIGEAEAKRDAGIREAKAKQEKVSAQYLSEIEMAKAQRDYELKKAAYDIEVNTRRAQADLAYQLQVAKTKQQIEEQRVQVQVVERAQQVAVQEQEIARREKELEARVRKPAEAERYKLERLAEAEKSQLIMQAEAEAASVRMRGEAEAFAIGARARAEAEQMAKKAEAFQLYQEAAQLDMLLEKLPQVAEEISGPLTSANKITLVSSGSGTMGAAKVTGEVLDILTRLPESVERLTGVSISQVNHKPLRTA
In the case of B1, the binding is reported as “binds”.

B2: FLOT2 (protein, UniProt Q14254 1-428)
chain: MGNCHTVGPNEALVVSGGCCGSDYKQYVFGGWAWAWWCISDTQRISLEIMTLQPRCEDVETAEGVALTVTGVAQVKIMTEKELLAVACEQFLGKNVQDIKNVVLQTLEGHLRSILGTLTVEQIYQDRDQFAKLVREVAAPDVGRMGIEILSFTIKDVYDKVDYLSSLGKTQTAVVQRDADIGVAEAERDAGIREAECKKEMLDVKFMADTKIADSKRAFELQKSAFSEEVNIKTAEAQLAYELQGAREQQKIRQEEIEIEVVQRKKQIAVEAQEILRTDKELIATVRRPAEAEAHRIQQIAEGEKVKQVLLAQAEAEKIRKIGEAEAAVIEAMGKAEAERMKLKAEAYQKYGDAAKMALVLEALPQIAAKIAAPLTKVDEIVVLSGDNSKVTSEVNRLLAELPASVHALTGVDLSKIPLIKKATGVQV
With B2 the binding was “binds”.
